For at least one compound, name, drawing or mass did not settle the structure.
Molecular target: T1, S-adenosyl-L-methionine: 31-O-desmethylimmunomycin O-methyltransferase (DIMT) (Streptomyces hygroscopicus subsp. ascomyceticus, UniProt Q9KID5)
T1 sequence (Q9KID5 1-260): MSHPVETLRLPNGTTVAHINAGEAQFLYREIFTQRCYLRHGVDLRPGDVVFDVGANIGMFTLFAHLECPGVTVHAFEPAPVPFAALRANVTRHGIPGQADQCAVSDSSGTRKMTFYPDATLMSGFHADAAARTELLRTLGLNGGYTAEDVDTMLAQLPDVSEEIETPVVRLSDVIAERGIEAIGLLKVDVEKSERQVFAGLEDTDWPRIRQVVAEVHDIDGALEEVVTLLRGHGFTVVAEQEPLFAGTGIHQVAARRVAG
Test: DIMT (31-O-desmethylimmunomycin O-methyltransferase) enzyme assay with 14C-SAM
Type: biochemical, Streptomyces hygroscopicus var. ascomyceticus
Method: The assay was carried out in 1ml. mixture containing 0.025 mM 31-desmethylimmunomycin, 1mM MgSO4 and different quantities of the enzyme source in 50mM phosphate buffer, pH 7.5. Reaction was initiated by the addition of 1 nmole of 14C-SAM (S-adenosyl-L-[methyl-14C] methionine with the specific activity of 46mCi/mmole. Incubation of the complete mixture was carried out at 34°C for 20 mins. and the reaction was terminated by the addition of ethyl acetate. Product of the reaction was extracted with 2ml. of ethyl acetate and 1ml. of the extract was used for TLC and HPLC analysis. For the analysis of the radioactive reaction product (immunomycin), the ethyl acetate extract was spiked with the standard immunomycin and subjected to the TLC with plate having plastic support. The plastic sheet was developed in chloroform:methanol (9:1) and area showing standard immunomycin under UV-light was cut and the radioactivity in the cut-strip was measured. The amount of the product formed was calculated from the measured radioactivity. […] One milliliter fractions were collected and a portion of each fraction was examined for the radioactivity. […]
Kinetic studies. […] Under the condition for measurement of the initial velocity, the apparent Km and Vmax of DIMT were determined with 31-O-desmethylimmunomycin and SAM. […]

Nc1ncnc2c1ncn2[C@@H]1O[C@H](C[C@@H](N)CC[C@H](N)C(=O)O)[C@@H](O)[C@H]1O [sinefungin]
inhibition of DIMT activity: major inhibition

From patent EP0528452A1, “Immunomycin enzymatic and/or microbial methylation products” (MERCK & CO. INC., priority 1991, dated 1993)
